Measured values as given in publication doi:10.1101/2019.12.24.888255.
Results are given in words; binding and its absence hold for the method and conditions named. For some assays here: Binding can be weak; no strength is given.

Amino acid sequences for entries named in this document (tags omitted). A change or cut given only in a name is not applied to a line headed by its entry.
UniProt P05230: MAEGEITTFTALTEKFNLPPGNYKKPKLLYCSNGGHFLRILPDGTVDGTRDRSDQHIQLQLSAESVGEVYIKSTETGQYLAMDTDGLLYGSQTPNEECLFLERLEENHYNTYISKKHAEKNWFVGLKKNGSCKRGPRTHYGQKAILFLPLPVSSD

How the values were obtained:
[1] = molecular target: acidic human fibroblast growth factor (hFGF1) (human) (UniProt P05230); assay: condition: only non-heat-treated, room temperature
[2] = molecular target: acidic human fibroblast growth factor (hFGF1) (human) (UniProt P05230); assay: SEC

With “chloroplast signal recognition particle 43-kDa subunit (cpSRP43) (from UniProt O22265 57-373)” the binding [1] was “no binding” and the binding [2] was “binds weakly”.
